No constants are given. Whether binding was seen depends on the method and setting. Binding seen in cells or lysates may run through a third protein. Some binding calls cover weakened binding; strength is not graded here.

Sequences of proteins named here, by UniProt entry; tags and fusion partners are left off.
UniProt Q9VCA8: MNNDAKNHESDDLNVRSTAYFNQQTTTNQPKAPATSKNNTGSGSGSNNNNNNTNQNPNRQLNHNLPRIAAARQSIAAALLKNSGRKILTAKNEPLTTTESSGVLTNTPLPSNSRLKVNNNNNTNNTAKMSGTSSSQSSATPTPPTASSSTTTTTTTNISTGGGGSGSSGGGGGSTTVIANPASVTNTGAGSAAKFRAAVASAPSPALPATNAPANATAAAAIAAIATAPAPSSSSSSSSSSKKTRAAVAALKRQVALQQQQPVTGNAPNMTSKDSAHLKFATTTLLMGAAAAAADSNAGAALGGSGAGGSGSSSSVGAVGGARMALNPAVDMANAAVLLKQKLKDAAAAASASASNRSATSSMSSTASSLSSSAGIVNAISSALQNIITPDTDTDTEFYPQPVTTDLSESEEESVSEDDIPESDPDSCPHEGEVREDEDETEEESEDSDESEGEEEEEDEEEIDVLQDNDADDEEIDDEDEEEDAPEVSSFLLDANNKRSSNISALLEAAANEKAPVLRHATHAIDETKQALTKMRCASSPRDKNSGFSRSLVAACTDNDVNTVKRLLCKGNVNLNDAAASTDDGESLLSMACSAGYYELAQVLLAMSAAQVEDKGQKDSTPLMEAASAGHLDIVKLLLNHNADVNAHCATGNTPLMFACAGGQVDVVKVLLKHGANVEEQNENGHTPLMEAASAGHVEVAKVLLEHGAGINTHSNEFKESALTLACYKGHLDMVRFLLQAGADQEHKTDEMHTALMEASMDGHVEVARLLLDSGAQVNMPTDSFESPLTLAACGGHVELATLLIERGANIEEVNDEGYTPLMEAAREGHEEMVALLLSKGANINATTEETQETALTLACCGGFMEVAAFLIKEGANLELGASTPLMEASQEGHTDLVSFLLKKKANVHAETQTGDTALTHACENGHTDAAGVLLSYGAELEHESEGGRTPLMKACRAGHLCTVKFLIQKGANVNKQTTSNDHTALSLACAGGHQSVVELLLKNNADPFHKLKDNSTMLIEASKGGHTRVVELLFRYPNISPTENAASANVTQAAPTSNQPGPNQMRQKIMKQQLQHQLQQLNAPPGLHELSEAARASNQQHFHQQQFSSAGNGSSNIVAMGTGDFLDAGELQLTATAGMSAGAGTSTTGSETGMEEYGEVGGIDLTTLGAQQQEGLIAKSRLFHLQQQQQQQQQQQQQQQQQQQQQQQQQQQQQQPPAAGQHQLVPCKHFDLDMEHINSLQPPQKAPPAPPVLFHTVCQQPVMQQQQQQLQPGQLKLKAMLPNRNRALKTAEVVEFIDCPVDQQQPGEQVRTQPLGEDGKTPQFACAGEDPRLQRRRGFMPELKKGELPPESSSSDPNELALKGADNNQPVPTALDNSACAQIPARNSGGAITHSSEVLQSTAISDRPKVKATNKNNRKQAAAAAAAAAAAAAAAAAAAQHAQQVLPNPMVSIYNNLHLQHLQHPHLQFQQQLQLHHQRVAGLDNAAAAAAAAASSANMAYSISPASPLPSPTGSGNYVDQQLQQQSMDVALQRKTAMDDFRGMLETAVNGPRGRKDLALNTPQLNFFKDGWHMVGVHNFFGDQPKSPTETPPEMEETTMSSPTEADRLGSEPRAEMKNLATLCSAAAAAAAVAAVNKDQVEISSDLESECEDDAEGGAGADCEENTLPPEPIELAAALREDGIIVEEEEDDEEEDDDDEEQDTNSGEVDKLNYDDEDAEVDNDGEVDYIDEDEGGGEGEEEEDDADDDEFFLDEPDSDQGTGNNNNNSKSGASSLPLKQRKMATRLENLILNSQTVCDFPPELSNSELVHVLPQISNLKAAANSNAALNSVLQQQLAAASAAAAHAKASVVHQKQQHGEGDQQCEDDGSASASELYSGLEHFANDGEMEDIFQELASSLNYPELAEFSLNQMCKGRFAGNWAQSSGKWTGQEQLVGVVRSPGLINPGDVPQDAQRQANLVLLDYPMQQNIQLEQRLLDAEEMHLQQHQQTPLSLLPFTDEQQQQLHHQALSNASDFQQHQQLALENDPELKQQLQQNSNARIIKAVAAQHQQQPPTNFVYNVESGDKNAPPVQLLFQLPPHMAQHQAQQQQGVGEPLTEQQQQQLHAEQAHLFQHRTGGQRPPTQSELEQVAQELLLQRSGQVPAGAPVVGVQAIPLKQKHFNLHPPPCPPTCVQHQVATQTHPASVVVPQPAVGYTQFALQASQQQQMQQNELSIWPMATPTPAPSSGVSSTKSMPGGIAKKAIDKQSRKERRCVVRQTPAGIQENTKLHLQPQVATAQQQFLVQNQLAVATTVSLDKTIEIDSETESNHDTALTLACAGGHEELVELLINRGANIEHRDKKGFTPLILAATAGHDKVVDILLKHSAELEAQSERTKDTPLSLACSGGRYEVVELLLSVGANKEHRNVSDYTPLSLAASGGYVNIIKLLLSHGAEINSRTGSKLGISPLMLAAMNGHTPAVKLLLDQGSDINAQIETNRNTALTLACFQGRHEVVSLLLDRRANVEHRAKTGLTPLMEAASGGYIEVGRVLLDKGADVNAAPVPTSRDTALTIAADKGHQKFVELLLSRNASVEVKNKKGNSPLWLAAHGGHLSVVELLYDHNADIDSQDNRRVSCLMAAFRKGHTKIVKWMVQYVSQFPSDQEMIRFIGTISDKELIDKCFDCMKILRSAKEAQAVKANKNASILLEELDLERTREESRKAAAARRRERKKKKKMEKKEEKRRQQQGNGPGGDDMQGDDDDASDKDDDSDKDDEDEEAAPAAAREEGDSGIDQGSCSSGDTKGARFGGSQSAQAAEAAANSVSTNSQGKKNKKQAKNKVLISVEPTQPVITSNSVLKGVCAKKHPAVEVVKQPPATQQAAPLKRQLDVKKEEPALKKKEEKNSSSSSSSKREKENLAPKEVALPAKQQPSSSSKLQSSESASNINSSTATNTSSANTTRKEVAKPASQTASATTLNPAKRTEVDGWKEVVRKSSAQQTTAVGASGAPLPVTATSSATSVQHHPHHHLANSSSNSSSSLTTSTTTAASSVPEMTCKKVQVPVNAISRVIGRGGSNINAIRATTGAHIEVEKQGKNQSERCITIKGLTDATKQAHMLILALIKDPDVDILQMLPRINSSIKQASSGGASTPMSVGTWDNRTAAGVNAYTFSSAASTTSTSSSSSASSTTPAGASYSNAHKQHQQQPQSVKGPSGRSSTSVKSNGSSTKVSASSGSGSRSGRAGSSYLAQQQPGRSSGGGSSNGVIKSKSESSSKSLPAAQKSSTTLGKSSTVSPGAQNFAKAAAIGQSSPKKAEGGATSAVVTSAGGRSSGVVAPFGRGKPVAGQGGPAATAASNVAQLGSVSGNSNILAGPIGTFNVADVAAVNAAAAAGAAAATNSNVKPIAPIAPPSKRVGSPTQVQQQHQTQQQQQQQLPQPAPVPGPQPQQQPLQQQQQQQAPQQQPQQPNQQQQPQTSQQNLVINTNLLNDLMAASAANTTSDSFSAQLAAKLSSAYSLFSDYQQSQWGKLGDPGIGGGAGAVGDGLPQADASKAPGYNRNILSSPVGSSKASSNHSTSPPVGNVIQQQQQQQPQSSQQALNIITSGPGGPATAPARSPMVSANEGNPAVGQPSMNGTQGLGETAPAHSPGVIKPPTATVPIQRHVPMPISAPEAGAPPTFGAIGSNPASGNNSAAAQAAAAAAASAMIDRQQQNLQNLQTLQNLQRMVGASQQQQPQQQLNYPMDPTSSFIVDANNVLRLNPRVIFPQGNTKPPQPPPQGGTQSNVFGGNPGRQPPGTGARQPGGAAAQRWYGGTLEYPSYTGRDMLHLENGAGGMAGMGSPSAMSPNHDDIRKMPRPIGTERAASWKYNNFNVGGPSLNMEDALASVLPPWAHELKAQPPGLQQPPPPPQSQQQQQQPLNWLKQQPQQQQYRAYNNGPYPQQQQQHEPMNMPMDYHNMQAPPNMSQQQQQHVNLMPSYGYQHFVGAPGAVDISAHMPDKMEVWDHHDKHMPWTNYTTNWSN

This assay has as its target Mask (endogenous) (Drosophila (endogenous in larval brains)) (UniProt Q9VCA8). Kind of assay: co-IP.

B1: mCherry-Jupiter (protein, UniProt Q9I7K0 1-208)
chain: MAAYAAFKHVELYNVGKAKKRVLRPPGGGSSDIFGSEMPQTPRNVKNRMASNIFAAEKDNGVKNNVRQGAHRFYFIGDAPRRGQKTVDSHSRLFGEPTRPITPGKNHMKSSIPFGQNTEAVAAQKLLTTNGHYNGKSGSVSSASSSVSSSTENLKMNSGSRSEGNPVTGEGYKVVANEYSQRQESSNGGTPVINKNRIPPGGYSSGLW
As for B1, the binding result is given as “binds”.
